Results: article PMC4652203
No constants are given. Whether binding was seen depends on the method and setting. Binding seen in cells or lysates may run through a third protein. Some entries that bind do so weakly or less than the wild type.

The chains behind the UniProt entries cited, without tags or fusion partners. Residues count along the entry.
UniProt Q6UX06, residues 21-510: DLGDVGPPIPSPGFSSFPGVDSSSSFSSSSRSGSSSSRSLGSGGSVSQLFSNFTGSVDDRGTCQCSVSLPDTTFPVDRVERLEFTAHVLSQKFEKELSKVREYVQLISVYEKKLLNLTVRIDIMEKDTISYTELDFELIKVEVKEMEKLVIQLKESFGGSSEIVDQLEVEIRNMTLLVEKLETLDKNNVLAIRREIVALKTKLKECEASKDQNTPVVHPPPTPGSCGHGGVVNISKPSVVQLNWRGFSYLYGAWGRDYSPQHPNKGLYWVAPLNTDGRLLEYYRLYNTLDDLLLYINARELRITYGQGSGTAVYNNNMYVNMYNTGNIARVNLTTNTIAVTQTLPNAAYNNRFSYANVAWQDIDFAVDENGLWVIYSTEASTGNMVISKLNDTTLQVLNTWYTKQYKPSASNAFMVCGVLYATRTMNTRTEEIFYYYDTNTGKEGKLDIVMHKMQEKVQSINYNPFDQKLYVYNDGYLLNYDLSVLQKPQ
UniProt Q15465, residues 24-462: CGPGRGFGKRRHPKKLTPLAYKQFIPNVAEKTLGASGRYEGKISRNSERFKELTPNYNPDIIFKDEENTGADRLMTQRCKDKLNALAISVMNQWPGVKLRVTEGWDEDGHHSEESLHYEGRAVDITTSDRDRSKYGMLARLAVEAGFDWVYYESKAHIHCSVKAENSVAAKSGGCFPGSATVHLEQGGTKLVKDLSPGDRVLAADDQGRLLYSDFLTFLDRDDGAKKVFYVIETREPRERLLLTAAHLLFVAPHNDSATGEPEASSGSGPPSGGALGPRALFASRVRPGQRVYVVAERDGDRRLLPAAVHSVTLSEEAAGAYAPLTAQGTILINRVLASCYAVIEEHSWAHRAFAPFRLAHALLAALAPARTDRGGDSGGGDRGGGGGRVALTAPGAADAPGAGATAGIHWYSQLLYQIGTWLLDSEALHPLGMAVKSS

Target: OLFM4-V5 tag (full-length olfactomedin 4) (human) (UniProt Q6UX06)
Assay: co-IP; lysates of stable PC-3 clones (500 ug in 0.5 mL) with 2 ug anti-V5 or anti-Flag (or normal IgG) for 3 h at 4 °C, then Protein G-Sepharose overnight at 4 °C; washed 3 times in lysis buffer; blot with anti-SHH

“sonic hedgehog (SHH) protein (from UniProt Q15465 24-462)” was tested, and the binding was “binds”.
